Positions count from the first letter of the chain named. No constants are given. Whether binding was seen depends on the method and setting. Binding seen in cells or lysates may run through a third protein. Some results given as binding are weak or reduced against the parent protein; the word gives no strength. Where a sequence is shown, tags or fusion partners need not be part of it.
Legend:
Assay in all cases: co-IP
[1] = target: T1, myc-Cnc1-YFP (wild-type yeast cyclin C) (S. cerevisiae) (UniProt P47821)
T1 sequence: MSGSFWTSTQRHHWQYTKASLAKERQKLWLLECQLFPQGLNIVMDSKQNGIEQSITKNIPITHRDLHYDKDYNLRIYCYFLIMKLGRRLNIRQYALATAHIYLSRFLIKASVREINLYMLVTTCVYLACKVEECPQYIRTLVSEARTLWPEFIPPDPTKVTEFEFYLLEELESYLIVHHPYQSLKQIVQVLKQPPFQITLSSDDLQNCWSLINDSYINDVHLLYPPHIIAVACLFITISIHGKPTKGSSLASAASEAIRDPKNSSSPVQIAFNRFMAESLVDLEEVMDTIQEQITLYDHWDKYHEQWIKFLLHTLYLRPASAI

[2] = target: T2, myc-Cnc1-YFP K130A (S. cerevisiae) (UniProt P47821)
T2 sequence: T1 sequence with K130A

[3] = target: T3, myc-Cnc1-YFP E169A (S. cerevisiae) (UniProt P47821)
T3 sequence: T1 sequence with E169A

[4] = target: T4, myc-Cnc1-YFP N213A (S. cerevisiae) (UniProt P47821)
T4 sequence: T1 sequence with N213A

[5] = target: T5, myc-Cnc1-YFP R274A (S. cerevisiae) (UniProt P47821)
T5 sequence: T1 sequence with R274A

Measured: binding

B1: HA epitope tagged CDK8 (Cdk8-HA), yeast (enzyme, UniProt P39073 1-555)
chain: MYNGKDRAQNSYQPMYQRPMQVQGQQQAQSFVGKKNTIGSVHGKAPMLMANNDVFTIGPYRARKDRMRVSVLEKYEVIGYIAAGTYGKVYKAKRQINSGTNSANGSSLNGTNAKIPQFDSTQPKSSSSMDMQANTNALRRNLLKDEGVTPGRIRTTREDVSPHYNSQKQTLIKKPLTVFYAIKKFKTEKDGVEQLHYTGISQSACREMALCRELHNKHLTTLVEIFLERKCVHMVYEYAEHDLLQIIHFHSHPEKRMIPPRMVRSIMWQLLDGVSYLHQNWVLHRDLKPANIMVTIDGCVKIGDLGLARKFHNMLQTLYTGDKVVVTIWYRAPELLLGARHYTPAVDLWSVGCIFAELIGLQPIFKGEEAKLDSKKTVPFQVNQLQRILEVLGTPDQKIWPYLEKYPEYDQITKFPKYRDNLATWYHSAGGRDKHALSLLYHLLNYDPIKRIDAFNALEHKYFTESDIPVSENVFEGLTYKYPARRIHTNDNDIMNLGSRTKNNTQASGITAGAAANALGGLGVNRRILAAAAAAAAAVSGNNASDEPSRKKNRR
binds: [1] | [2] | [3]

B2: Dnm1-myc (enzyme, UniProt P54861 1-757)
chain: MASLEDLIPTVNKLQDVMYDSGIDTLDLPILAVVGSQSSGKSSILETLVGRDFLPRGTGIVTRRPLVLQLNNISPNSPLIEEDDNSVNPHDEVTKISGFEAGTKPLEYRGKERNHADEWGEFLHIPGKRFYDFDDIKREIENETARIAGKDKGISKIPINLKVFSPHVLNLTLVDLPGITKVPIGEQPPDIEKQIKNLILDYIATPNCLILAVSPANVDLVNSESLKLAREVDPQGKRTIGVITKLDLMDSGTNALDILSGKMYPLKLGFVGVVNRSQQDIQLNKTVEESLDKEEDYFRKHPVYRTISTKCGTRYLAKLLNQTLLSHIRDKLPDIKTKLNTLISQTEQELARYGGVGATTNESRASLVLQLMNKFSTNFISSIDGTSSDINTKELCGGARIYYIYNNVFGNSLKSIDPTSNLSVLDVRTAIRNSTGPRPTLFVPELAFDLLVKPQIKLLLEPSQRCVELVYEELMKICHKCGSAELARYPKLKSMLIEVISELLRERLQPTRSYVESLIDIHRAYINTNHPNFLSATEAMDDIMKTRRKRNQELLKSKLSQQENGQTNGINGTSSISSNIDQDSAKNSDYDDDGIDAESKQTKDKFLNYFFGKDKKGQPVFDASDKKRSIAGDGNIEDFRNLQISDFSLGDIDDLENAEPPLTEREELECELIKRLIVSYFDIIREMIEDQVPKAVMCLLVNYCKDSVQNRLVTKLYKETLFEELLVEDQTLAQDRELCVKSLGVYKKAATLISNIL
binds: all assays above

— paper doi:10.64898/2025.12.30.696989
